In paper PMC12040169 (PLOS Biology, 2025):
Like-named read-outs stand apart in the source and are kept apart here. Some of the results follow.

Tested on: T1, CTL2-GFP (C. trachomatis L2/434/Bu, GFP-expressing)
T1 construct: L2/434/Bu, GFP-expressing
Set-up: species or system HeLa; Intracellular C. trachomatis growth in HeLa cells, bulk GFP fluorescence relative to DMSO
Conditions: bulk GFP, single well, 28.5 h, 10 µM, inhibitor

Cc1cc(C)nc(Nc2ccc(C3CCCN(C(=O)c4c(C)oc5c4CCCC5)C3)nc2)n1 (stereo not shown) [CBK285988]
% of control remaining: 117.829%

CC(=O)Nc1nnc(SCC(=O)N2CCN(c3ccc(Cl)cc3)CC2)s1 [CBK307384]
% of control remaining: 142.117%

CCN1CCCN(c2cc(OCc3ccc(Cl)c(Cl)c3)ncn2)CC1 [CBK083786]
% of control remaining: 131.79%

C=Cn1cc(CN2CCC(O)(c3ccccc3C)CC2)c(C)n1 [CBK282580]
% of control remaining: 125.13%

FC(F)(F)Oc1ccc(-c2cc(NCCc3ccccn3)ncn2)cc1 [CBK037732]
% of control remaining: 128.816%

CCc1csc(CCNc2ccc(-c3nc(C4CC4)no3)cn2)n1 [CBK306608]
% of control remaining: 87.5839%

Cc1nc2c(s1)C[C@@H]1[C@](C)(CO)[C@H](O)CC[C@@]1(C)[C@@H]2CC(=O)O [CBK289571]
% of control remaining: 120.839%

N#C/C(=C\C=C\c1ccc([N+](=O)[O-])cc1)c1nc(-c2cc3cc([N+](=O)[O-])ccc3oc2=O)cs1 [CBK262357]
% of control remaining: 127.784%

Cc1ncc(C(O)c2ccc(Cl)cc2)c2c1OC(C)(C)OC2 (stereo not shown) [CBK010749]
% of control remaining: 108.972%

O=C(O)c1ccc(Cl)c(S(=O)(=O)Nc2ccc(I)cc2)c1 [CBK296132]
% of control remaining: 138.96%

COc1ccc([N+](=O)[O-])cc1NC(=O)c1cc(-c2cccnc2)nc2ccc(C)cc12 [CBK267757]
% of control remaining: 126.98%

O=C(O)CCN1CCC2(CCN(C(=O)c3cc(F)c(F)cc3F)C2)C1 (stereo not shown) [CBK137123]
% of control remaining: 91.664%

CC(=O)c1ccc(-c2nccnc2N[C@@H]2CCN(Cc3ccccc3)C2)s1 [CBK036981]
% of control remaining: 100.533%

CC1OCCC12CN(c1cc(CO)c(F)cn1)CCO2 (stereo not shown) [CBK304775]
% of control remaining: 119.341%

O=C(NCCn1nc(-c2cccs2)oc1=O)C1CCCCC1 [CBK282343]
% of control remaining: 99.1846%

Oc1cc2cccnc2nc1-c1ccc2c(c1)CCO2 [CBK073698]
% of control remaining: 105.337%

CC(=O)N1CC[C@H]2NC(=O)CNC(=O)C3(CCCC[C@H]2C1)CCNCC3 [CBK292142]
% of control remaining: 122.633%

O=C(c1ccc[nH]1)N1Cc2ccccc2C1 [CBK200319]
% of control remaining: 196.134%

O=C(NCc1cccs1)C1(Cc2ccccc2-c2ccc(F)c(F)c2)CCOCC1 [CBK286417]
% of control remaining: 116.852%

Cc1cccc(NC(=O)NCCCn2c(-c3ccncc3)nc3cccnc32)c1 [CBK288580]
% of control remaining: 129.061%

COc1ccc(N2C(=O)c3ccc(C(=O)Nc4ccccc4C(=O)O)cc3C2=O)cc1O [CBK262833]
% of control remaining: 124.236%

O=c1c2c3nc4ccccc4nc3n(CCc3ccccc3)c2ncn1Cc1ccco1 [CBK269502]
% of control remaining: 97.8142%

c1cnc2[nH]c(C3CCOCC3)c(CN3CCSCC3)c2c1 [CBK284688]
% of control remaining: 129.134%

Cc1c(C)n(Cc2ccccc2)c2ccc(C(=O)OCCCN(C)C)cc12 [CBK087693]
% of control remaining: 93.0699%

Cc1ccc(O)c(CN[C@@H]2CCC[C@H]2Cc2cc(C)no2)c1 [CBK284936]
% of control remaining: 126.79%

Cc1ccc2[nH]c(=O)c(CNc3ccc(-c4nc5cc(C)ccc5[nH]4)cc3)cc2c1 [CBK286161]
% of control remaining: 108.364%

O=C(NCc1ccc(-c2csnn2)cc1)c1ccco1 [CBK149289]
% of control remaining: 101.663%

COc1ccc(N(CC(=O)NC2CC3CCC2C3)S(=O)(=O)c2ccc(C)cc2)cc1 (stereo not shown) [CBK266574]
% of control remaining: 115.623%

CCn1cc(C(=O)N2CCN(Cc3ccco3)C[C@@H]2C(C)C)cn1 [CBK284307]
% of control remaining: 115.696%

COC(=O)c1c(NC(=S)NCc2ccccn2)sc2c1CCC2 [CBK267090]
% of control remaining: 120.311%

CCOC(=O)CSC1=NNC(C)(c2c(O)c3ccccc3n(CC)c2=O)N1 (stereo not shown) [CBK009370]
% of control remaining: 118.596%

CC(=O)Nc1ccc(N2C(=O)CSC23C(=O)Nc2ccccc23)cc1 (stereo not shown) [CBK095916]
% of control remaining: 110.308%

Cn1ncc(N2CCC(CNC(=O)COc3cccc(F)c3)C2)cc1=O (stereo not shown) [CBK307692]
% of control remaining: 103.14%

CC(=O)c1cccc(NC(=O)Cn2nc(N3CCSCC3)ccc2=O)c1 [CBK307625]
% of control remaining: 153.13%

CCCCC(c1cccnc1)N(C)C(=O)c1ccnc(-n2cnnc2)c1 (stereo not shown) [CBK306786]
% of control remaining: 144.651%

Cc1cccc(NC(=O)c2ccccc2NS(=O)(=O)c2ccc(F)c(F)c2)c1 [CBK113810]
% of control remaining: 114.607%

O=C(Nc1ccccc1N1CCN(C(=O)c2ccccc2)CC1)c1cccnc1 [CBK269948]
% of control remaining: 91.8164%

Cc1ccccc1CNC(=O)CCSc1ccc(Cl)cc1 [CBK264040]
% of control remaining: 126.472%

COCCn1c(=O)n(CC=C(C)C)c2cccnc21 [CBK283534]
% of control remaining: 109.039%

COc1ccc(Cl)cc1N(CC(=O)Nc1ccccc1C(=O)O)S(C)(=O)=O [CBK264137]
% of control remaining: 100%

CC1=CC(C)C(C(=O)O)C(C(=O)N2CCN(C)CC2)C1 (stereo not shown) [CBK027311G]
% of control remaining (Bulk GFP fluorescence): 108.99%

CCOC(=O)c1[nH]c2ccccc2c1NC(=O)c1ccc(Cl)cc1Br [CBK160140]
% of control remaining: 121.121%

Cn1cncc1CN(CCc1ccccc1)Cc1ccncc1 [CBK282992]
% of control remaining: 116.352%

CCOC(=O)c1sc(-c2cccc(C)n2)nc1O [CBK081083]
% of control remaining: 115.926%

COc1ccccc1NC(=O)C1CN(S(=O)(=O)c2ccccc2)CCN1S(=O)(=O)c1ccccc1 (stereo not shown) [CBK262673]
% of control remaining: 112.017%

O=C(c1nc2ccccn2c1CN1CCCC(O)C1)N1CCOCC1 (stereo not shown) [CBK307237]
% of control remaining: 99.7585%

c1ccc(CCN2CCN(CC3COc4ccccc4O3)CC2)cc1 (stereo not shown) [CBK138342]
% of control remaining: 116.678%

CCCCn1c(SCC(=O)c2cc(C)n(CCc3ccc(OC)cc3)c2C)n[nH]c1=O [CBK295351]
% of control remaining: 132.309%

CCC(NS(=O)(=O)c1ccc(OC)cc1)C(=O)O (stereo not shown) [CBK264509]
% of control remaining: 127.104%

Cc1cccc(C)c1NC(=O)CN1CCN(c2nccnc2OCC2COc3ccccc3O2)CC1 (stereo not shown) [CBK082801T]
% of control remaining: 79.7318%

Cn1cc(C(=O)Nc2ccc3c(c2)CN(Cc2ccccc2)C3)cn1 [CBK281838]
% of control remaining: 147.645%

Cc1cc(C(=O)NCc2ccc(C(=O)O)cc2)no1 [CBK268108]
% of control remaining: 121.013%

CC(CCCC(C)(C)O)NS(=O)(=O)c1ccc(-c2ccon2)s1 (stereo not shown) [CBK062466]
% of control remaining: 111.353%

Cc1ccnc(-n2sc3ccccc3c2=O)n1 [CBK116499]
% of control remaining: 81.6449%

CCc1cccc(CN2CCC(CNC(=O)Nc3ccc(Cl)cc3)CC2)c1 [CBK269151]
% of control remaining: 138.323%

COc1ccc(S(=O)(=O)NCC(=O)O)cc1OC [CBK034454]
% of control remaining: 165.253%

COc1ccc(C(CC(=O)O)CC(=O)O)cc1OC [CBK263545]
% of control remaining: 103.393%

CNC(=O)CN1C(=O)CC2(C1=O)C(=O)N(C)c1ccc(OC)cc12 (stereo not shown) [CBK075190]
% of control remaining: 122.469%

Cc1ccc(Nc2cc(-c3cccc4oc5ccccc5c34)ncn2)cc1NS(C)(=O)=O [CBK091150]
% of control remaining: 94.7303%

O=C(Nc1ccc(OCc2ccccc2)cc1)c1cnc2n(c1=O)CCS2 [CBK287378]
% of control remaining: 125.436%

CCC(c1ccc(F)cc1F)N1CCN(Cc2nc(C)no2)CC1 (stereo not shown) [CBK304032]
% of control remaining: 119.765%

Cc1ccnc(NC(=O)C2CCCN(C(=O)OC(C)(C)C)C2)c1 (stereo not shown) [CBK305875]
% of control remaining: 131.144%

Cc1cc2ccccc2n2c(SCC(=O)Nc3nsc(-c4ccccc4)n3)nnc12 [CBK265673]
% of control remaining: 96.1643%

Cc1sc2nc(N)c(C(=O)NC(C)C)cc2c1C [CBK269259]
% of control remaining: 134.747%

O=c1nc(CN2CCN(c3ncccn3)CC2)[nH]c2ccccc12 [CBK269918]
% of control remaining: 109.844%

Cc1nn(C)c(Cl)c1S(=O)(=O)Nc1ccc2cn[nH]c2c1 [CBK067141]
% of control remaining: 114.451%

COc1cc(/C=N/NC(=O)CNC(=O)c2ccncc2)ccc1O [CBK262013]
% of control remaining: 87.9587%

N#Cc1cccc(-n2cc(-c3ccc(C(F)(F)F)cc3)nn2)c1 [CBK112957]
% of control remaining: 94.2007%

O=C1CC2CC3CC2C(Sc2ccccc2)C3O1 (stereo not shown) [CBK016225]
% of control remaining: 107.079%

Cc1c(S(=O)(=O)Nc2ccc(C(O)(C(F)(F)F)C(F)(F)F)cc2)cnn1-c1ccccc1 [CBK062099]
% of control remaining: 110.789%

CC(=O)Nc1cc(C(=O)Nc2ccc(Br)cc2)ccc1C [CBK267788]
% of control remaining: 136.555%

Nc1cccc(-c2ccc(OC3CCNCC3)cc2)c1 [CBK126959T]
% of control remaining: 112.538%

CCC(CO)Nc1nccnc1-c1cccc(F)c1 (stereo not shown) [CBK036775]
% of control remaining: 79.4574%

Cc1ccc(S(=O)(=O)Nc2sccc2C(=O)Nc2ccc(F)cc2)cc1 [CBK042302]
% of control remaining: 140.093%

O=C(CCN1CCCCC1)NC1Cc2ccccc2C1 [CBK200364]
% of control remaining: 92.5429%

COc1cccc(C(=O)Nc2ccc(-c3noc(-c4ccncc4)n3)cc2)c1 [CBK269892]
% of control remaining: 146.141%

CC(=O)c1c(-c2cccc3ccccc23)nc2n(CCN3CCCCC3)c3ccccc3n12 [CBK278243C]
% of control remaining: 98.0283%

O=C(COc1cccc2ccccc12)NNC(=O)C1CCCO1 (stereo not shown) [CBK263007]
% of control remaining: 105.638%

O=C(COc1ccc(F)cc1)Nc1cccc2[nH]ccc12 [CBK159653]
% of control remaining: 141.661%
